Reference: US7378246B2, “Methods and compositions for regulating adipogenesis” (The Board of Trustees of the Leland Stanford Junior …, priority 2002, dated 2008)
At least one structure is not confirmed: it was looked up by name or label, or the drawing left a doubt.

Tested on: 3T3-L1 preadipocytes
Assay: Adipocyte differentiation of 3T3-L1 (L1) cells, Oil Red O staining
Assay type: cell-based
Details: medium with 10% fetal bovine serum and 1 μM rosiglitazone, 20% O2
Procedure: Based on previously described procedure (Wu et al., 1996), L1 cells were maintained in GM for 2 days after confluence. The confluent cells were treated (day 0) with differentiation medium (DM) containing 10% FBS, 10 μg/ml INS, 1 μM DEX and 0.5 mM MIX in DMEM for 2 days. Cells were then maintained in DMEM containing 10% FBS and 1 μg/ml INS, and the medium was replaced every other day.
To evaluate the effects of hypoxia on adipogenesis, cells were maintained at 20% O2 in standard incubator, 2% O2 in standard incubator or 0.01% O2 in an anaerobic chamber immediately following treatment with DM. Alternatively, CoCl2 or DFO was added to DM at indicated concentrations either during the initial stage of stimulation or for the entire course of differentiation.
For visualization of differentiated adipocytes, cells were washed with phosphate-buffered saline (PBS) and stained in 60% of the Oil Red O stock solution (0.5 g Oil Red O in 100 ml of isopropanol) for 30 min at 37° C. Cells were briefly washed in 60% isopropanol and then rinsed in distilled water for microscopic observation and photography.
Retroviruses were produced using the phoenix cell system (Baker et al., 1992; Pear et al., 1993). L1 cells at 30-50% confluence were retrovirally infected 2-3 times with 8 μg/ml Polybrene by centrifugation at 1800-2000 rpm for 1 hr, followed by overnight incubation at 32° C. […]

CN(CCOc1ccc(CC2SC(=O)NC2=O)cc1)c1ccccn1 (stereo not shown) [rosiglitazone]
differentiation of vector-infected L1 cells: do not differentiate
